Structures can show the parent of a compound that is named as a salt. The list shows a part of the results. Repeats are few or missing, and single values can be far off.
Tested on: Reh
Assay: S-phase gammaH2AX median, Z-score vs plate median (drug alone); higher = more S-phase DNA damage
Conditions: MK1775 concentration 0 nM; 10 µM; 4 h

Row | Structure (SMILES) | S-phase gammaH2AX median (Z-score)
1 | Cn1nnc2c(C(N)=O)ncn2c1=O [Temozolomide] | 0.0197
2 | CN1[C@@H]2CC[C@H]1C[C@@H](OC(=O)C(O)c1ccccc1)C2 (mixture of isomers) [DL-Homatropine hydrobromide] | 0.0189
3 | C[C@]12CC[C@H](O)CC1=CC[C@@H]1[C@@H]2CC[C@]2(C)C(c3cccnc3)=CC[C@@H]12 [Abiraterone (CB-7598)] | 0.0329
4 | C=C1C(=O)O[C@H]2[C@H]1CC/C(C)=C/CC[C@@]1(C)O[C@@H]21 [Parthenolide] | 0.125
5 | CC(CN(C)C)CN1c2ccccc2CCc2ccccc21 (stereo unspecified) [Trimipramine maleate] | -0.38
6 | COC(=O)[C@H]1[C@H]2C[C@H]3c4[nH]c5ccccc5c4CCN3C[C@H]2CC[C@@H]1O [Rauwolscine hydrochloride] | 0.207
7 | COC(=O)C(C)(N)Cc1ccc(O)cc1 (racemic) [alpha-Methyl-DL-tyrosine methyl ester hydrochloride] | -0.0213
8 | CC(C)NCC(O)COc1cccc2[nH]ccc12 (stereo unspecified) [Pindolol] | -0.0213
9 | CC(C)C(=O)c1c(C(C)C)nn2ccccc12 [Ibudilast] | 0.0535
10 | Nc1ncnc2c1ncn2[C@@H]1O[C@@H]2COP(=O)(O)O[C@H]2[C@H]1O [Adenosine 3',5'-cyclic monophosphate] | 0.0408
11 | CC12CC3CC(C)(C1)CC(N)(C3)C2 [Memantine hydrochloride] | 0.147
12 | O=C(Nc1cccnc1)N1CCC(Cc2cccc(Oc3ccc(C(F)(F)F)cn3)c2)CC1 | 0.0336
13 | O=C(Nc1ccc([N+](=O)[O-])cc1Cl)c1cc(Cl)ccc1O [Niclosamide] | 0.0378
14 | C#C[C@]1(O)CC[C@H]2[C@@H]3CCC4=Cc5oncc5C[C@]4(C)[C@H]3CC[C@@]21C [Danazol] | 0.0661
15 | Cc1cccc(-c2nn3c(c2-c2ccnc4ccc(C(N)=O)cc24)CCC3)n1 | -0.00193
16 | CO[C@H]1C[C@@H]2CC[C@@H](C)[C@@](O)(O2)C(=O)C(=O)N2CCCC[C@H]2C(=O)O[C@H]([C@H](C)C[C@@H]2CC[C@@H](OC(=O)C(C)(CO)CO)[C@H](OC)C2)CC(=O)[C@H](C)/C=C(\C)[C@@H](O)[C@@H](OC)C(=O)[C@H](C)C[C@H](C)/C=C/C=C/C=C/1C [Temsirolimus (Torisel)] | -0.147
17 | CN(C(=O)CCCOc1ccc2[nH]c(=O)ccc2c1)C1CCCCC1 [Cilostamide] | -0.0175
18 | CN1CCN(c2ccc3nc(-c4c(N)c5c(F)cccc5[nH]c4=O)[nH]c3c2)CC1 [Dovitinib (TKI-258)] | 4.45
19 | N[C@@H](COP(=O)(O)O)C(=O)O [O-Phospho-L-serine] | 0.0142
20 | CCCCc1oc2ccccc2c1C(=O)c1cc(I)c(OCCN(CC)CC)c(I)c1 [Amiodarone hydrochloride] | 0.00777
21 | O=C(O)c1cc2cc(F)ccc2[nH]1 [5-Fluoroindole-2-carboxylic acid] | -0.0854

Row | Structure (SMILES) | S-phase gammaH2AX median (Z-score)
22 | CCN1CCCC1CNC(=O)c1cc(S(N)(=O)=O)ccc1OC (stereo unspecified) [(?)-Sulpiride] | 0.474
23 | CN1CCN2c3ccccc3Cc3ccccc3C2C1 (stereo unspecified) [Mianserin hydrochloride] | 0.0591
24 | N[C@@H](Cc1ccc(O)c(O)c1)C(=O)O [L-3,4-Dihydroxyphenylalanine] | -0.0378
25 | CCN1CCCC1CNC(=O)c1cc(S(N)(=O)=O)ccc1OC (single isomer, unassigned; (-)) [(-)-Sulpiride] | -0.0467
26 | CN(c1ncccc1CNc1nc(Nc2ccc3c(c2)CC(=O)N3)ncc1C(F)(F)F)S(C)(=O)=O | -0.0182
27 | C[N+](C)(C)CCOC(N)=O [Carbachol] | 0.204
28 | COc1ccc(-c2oc3cc(OC)ccc3c2C(=O)c2ccc(C#N)cc2)cc1 | 0.0329
29 | CCN1C(=O)C=CC1=O [N-Ethylmaleimide] | 0
30 | O=C1c2c(O)ccc(O)c2C(=O)c2c(NCCNCCO)ccc(NCCNCCO)c21 [Mitoxantrone] | 14.7
31 | O=C1c2c(O)ccc(O)c2C(=O)c2c(NCCNCCO)ccc(NCCNCCO)c21 [Mitoxantrone Hydrochloride] | 5.81
32 | CCOC(=O)C1=C(C)NC(C)=C(C(=O)OC)C1c1cccc(Cl)c1Cl (stereo unspecified) [Felodipine] | -0.022
33 | Cc1nc2sccn2c(=O)c1CCN1CCC(=C(c2ccc(F)cc2)c2ccc(F)cc2)CC1 [Ritanserin] | -0.0133
34 | Cc1oc(S(=O)(=O)N2CCCCC2)cc1NC(=O)Nc1ccccc1 | -0.053
35 | COc1cc(Nc2ncc3c(n2)-c2ccc(Cl)cc2C(c2c(F)cccc2OC)=NC3)ccc1C(=O)O [MLN8237 (Alisertib)] | -0.0174
36 | Cc1ccc(Nc2nccc(N(C)c3ccc4c(C)n(C)nc4c3)n2)cc1S(N)(=O)=O [Pazopanib] | -0.12
37 | Nc1cc(C(F)(F)F)c(-c2cc(N3CCOCC3)nc(N3CCOCC3)n2)cn1 | -0.0615
38 | Cc1c(C(=O)Nc2ccc(N3C[C@@H](C)O[C@@H](C)C3)nc2)cccc1-c1ccc(OC(F)(F)F)cc1 [LDE225 (NVP-LDE225, Erismodegib)] | -0.097
39 | CC(C)NNC(=O)c1ccncc1 [Iproniazid phosphate] | 0.205
40 | O=C(O)c1cc(=O)c2ccccc2[nH]1 [Kynurenic acid] | -0.198
41 | Cc1cnc(NC(=O)Nc2cc(Br)c(C)cc2OC[C@@H]2CNCCO2)cn1 | 0.501
42 | O=c1cc(N2CCOCC2)oc2c(-c3ccccc3)cccc12 [LY-294,002 hydrochloride] | 0.0591

From no. 33 to 39, copied from above:
Row | Structure (SMILES) | S-phase gammaH2AX median (Z-score)
33 | Cc1nc2sccn2c(=O)c1CCN1CCC(=C(c2ccc(F)cc2)c2ccc(F)cc2)CC1 [Ritanserin] | -0.0133
34 | Cc1oc(S(=O)(=O)N2CCCCC2)cc1NC(=O)Nc1ccccc1 | -0.053
35 | COc1cc(Nc2ncc3c(n2)-c2ccc(Cl)cc2C(c2c(F)cccc2OC)=NC3)ccc1C(=O)O [MLN8237 (Alisertib)] | -0.0174
36 | Cc1ccc(Nc2nccc(N(C)c3ccc4c(C)n(C)nc4c3)n2)cc1S(N)(=O)=O [Pazopanib] | -0.12
37 | Nc1cc(C(F)(F)F)c(-c2cc(N3CCOCC3)nc(N3CCOCC3)n2)cn1 | -0.0615
38 | Cc1c(C(=O)Nc2ccc(N3C[C@@H](C)O[C@@H](C)C3)nc2)cccc1-c1ccc(OC(F)(F)F)cc1 [LDE225 (NVP-LDE225, Erismodegib)] | -0.097
39 | CC(C)NNC(=O)c1ccncc1 [Iproniazid phosphate] | 0.205

Remaining list, next part.

Row | Structure (SMILES) | S-phase gammaH2AX median (Z-score)
43 | O=c1cc(N2CCOCC2)oc2c(-c3ccccc3)cccc12 | -0.0824
44 | O=C(O)CCCCCCC1C(=O)NC(=O)N1CCC(O)C1CCCCC1 (stereo unspecified) | -0.102
45 | CCCCCCCCCCCCCCCCCCNC(=O)OCC(COP(=O)([O-])OCC[n+]1ccsc1)OC (stereo unspecified) | 0.36
46 | N#Cc1ccc(NC(=O)Nc2ccccc2Br)c2n[nH]nc12 | -0.036
47 | Clc1ccc(C(c2ccccc2Cl)C(Cl)Cl)cc1 (stereo unspecified) [1-(2-Chlorophenyl)-1-(4-chlorophenyl)-2,2-dichloroethane] | 0.0796
48 | c1ccc(-c2nn3c(c2-c2ccnc4cc(OCCN5CCOCC5)ccc24)CCC3)nc1 | 0.0963
49 | C=CCN1CCc2cc(O)c(O)cc2C(c2ccccc2)C1 (stereo unspecified) | -0.0734
50 | NCCCS(=O)(=O)O [3-Amino-1-propanesulfonic acid sodium] | -0.0175
51 | COc1cc2nc(N3CCCN(C)CC3)nc(NC3CCN(Cc4ccccc4)CC3)c2cc1OC | -0.162
52 | NC1CONC1=O (racemic) [DL-Cycloserine] | 0.0699
53 | Cc1nc2c([nH]1)c(=O)n(C)c(=O)n2Cc1ccco1 [Furafylline] | 0
54 | CCC1(C)CC(=O)NC1=O (stereo unspecified) [Ethosuximide] | 0.132
55 | OC[C@H]1NC[C@@H](O)[C@@H]1O [1,4-Dideoxy-1,4-imino-D-arabinitol] | -0.18
56 | COc1cc(CNC(=O)CCCCCCC(C)C)ccc1O [Dihydrocapsaicin] | 0.0686
57 | N#CC[C@H](C1CCCC1)n1cc(-c2ncnc3[nH]ccc23)cn1 | 0.00425
58 | CSc1nc(N)c2ncn([C@@H]3O[C@H](COP(=O)(O)OP(=O)(O)O)[C@@H](O)[C@H]3O)c2n1 [2-Methylthioadenosine diphosphate trisodium] | -0.341
59 | CCCCS(=N)(=O)CCC(N)C(=O)O [L-Buthionine-sulfoximine] | -0.00388
60 | COc1cccc(OC)c1OCCNCC1CSc2ccccc2O1 (stereo unspecified) [Benoxathian hydrochloride] | -0.0544
61 | CCC(C)(C)C(=O)O[C@H]1C[C@@H](C)C=C2C=C[C@H](C)[C@H](CC[C@@H]3C[C@@H](O)CC(=O)O3)[C@H]21 [Simvastatin (Zocor)] | -0.0437
62 | Nc1nccc(Oc2ccc(NC(=O)c3c[nH]cc(-c4ccc(F)cc4)c3=O)cc2F)c1Cl | 0.118
63 | CCN(CC)C(=O)c1ccc(O)c(OC)c1 [Vanillic acid diethylamide] | 0.161

Row | Structure (SMILES) | S-phase gammaH2AX median (Z-score)
64 | NC1(C(=O)O)CC1 [1-Aminocyclopropanecarboxylic acid hydrochloride] | -0.0777
65 | NC(=O)Nc1cc(-c2cccc(F)c2)sc1C(=O)N[C@H]1CCCNC1 | 1.09
66 | O=C(c1ccc(F)cc1)C1CCN(CCn2c(=O)[nH]c3ccccc3c2=O)CC1 [Ketanserin tartrate] | -0.614
67 | O=C(O)CCc1ccc(NCc2cccc(Oc3ccccc3)c2)cc1 | 0.122
68 | O=C1NCC2(CCN(CCc3ccccc3)CC2)O1 [Fenspiride hydrochloride] | -0.198
69 | Cl.N[C@@H](CCC(=O)O)C(=O)O [L-Glutamic acid hydrochloride] | 0.0283
70 | CSC(=N)N [S-Methylisothiourea hemisulfate] | -0.0378
71 | CCCNC(=O)NS(=O)(=O)c1ccc(Cl)cc1 [Chlorpropamide] | -0.033
72 | Cc1cnc(Nc2ccc(OCCN3CCCC3)cc2)nc1Nc1cccc(S(=O)(=O)NC(C)(C)C)c1 | -0.0135
73 | Clc1cccc(Cl)c1NC1=NCCN1 [Clonidine hydrochloride] | 0.0291
74 | CN(C)S(=O)(=O)c1ccc2c(c1)/C(=C/c1cc3c([nH]1)CCCC3)C(=O)N2 | -0.111
75 | N=C(N)NCCCCNC(=N)N [Arcaine sulfate] | -0.00971
76 | Cc1csc(-c2nnc(Nc3ccc(Oc4ncccc4-c4ccnc(N)n4)cc3)c3ccccc23)c1 | 0.104
77 | Nc1nc2c(ncn2COC(CO)CO)c(=O)[nH]1 [Ganciclovir] | 0.0346
78 | c1ccc2c(CCNc3ccc(Nc4ccncc4)cc3)c[nH]c2c1 | 0.0104
79 | COc1c(C)cnc(Cn2cnc3c(Cl)nc(N)nc32)c1C | -0.118
80 | CC(C)NCC(O)COc1ccc(CC(N)=O)cc1 (stereo unspecified) [(?)-Atenolol] | -0.0485
81 | Cc1ccc([C@@H]2O[C@H](CO)[C@@H](O)[C@H](O)[C@H]2O)cc1Cc1ccc(-c2ccc(F)cc2)s1 [Canagliflozin] | -0.0622

From the supplement of paper PMC5355238
